Measurements from “University of Dundee, Small-Polar-MMV Screening Library” (2021), ChEMBL document CHEMBL3988442.

Amino acid sequences for entries named in this document (tags omitted). Residues count along the entry.
UniProt P9WPC5, whole entry: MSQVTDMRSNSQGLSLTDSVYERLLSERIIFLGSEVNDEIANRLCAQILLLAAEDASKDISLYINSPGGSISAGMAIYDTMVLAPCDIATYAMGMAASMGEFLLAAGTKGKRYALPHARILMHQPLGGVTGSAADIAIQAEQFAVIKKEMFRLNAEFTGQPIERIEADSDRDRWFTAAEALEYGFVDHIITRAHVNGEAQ
UniProt P9WPC3, whole entry partner: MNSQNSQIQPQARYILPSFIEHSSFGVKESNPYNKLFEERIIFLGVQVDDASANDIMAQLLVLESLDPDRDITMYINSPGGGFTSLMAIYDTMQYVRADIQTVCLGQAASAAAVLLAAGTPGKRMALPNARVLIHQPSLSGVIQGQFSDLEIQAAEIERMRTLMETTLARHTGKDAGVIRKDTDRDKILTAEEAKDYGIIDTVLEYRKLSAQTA
UniProt Q4DA54, 1-478: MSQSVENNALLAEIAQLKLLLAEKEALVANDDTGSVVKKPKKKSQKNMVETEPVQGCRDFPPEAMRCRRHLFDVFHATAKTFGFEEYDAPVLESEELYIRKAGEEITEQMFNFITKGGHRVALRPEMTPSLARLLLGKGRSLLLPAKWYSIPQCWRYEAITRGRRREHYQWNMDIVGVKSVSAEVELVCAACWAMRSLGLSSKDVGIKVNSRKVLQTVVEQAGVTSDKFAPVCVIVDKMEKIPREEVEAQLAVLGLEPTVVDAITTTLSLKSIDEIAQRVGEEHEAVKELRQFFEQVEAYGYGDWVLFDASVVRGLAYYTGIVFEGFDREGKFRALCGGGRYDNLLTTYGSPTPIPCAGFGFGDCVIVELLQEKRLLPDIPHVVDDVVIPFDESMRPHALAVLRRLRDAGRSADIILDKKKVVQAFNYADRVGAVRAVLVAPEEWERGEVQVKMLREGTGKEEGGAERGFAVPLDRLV
UniProt Q8IDJ8, 1-583: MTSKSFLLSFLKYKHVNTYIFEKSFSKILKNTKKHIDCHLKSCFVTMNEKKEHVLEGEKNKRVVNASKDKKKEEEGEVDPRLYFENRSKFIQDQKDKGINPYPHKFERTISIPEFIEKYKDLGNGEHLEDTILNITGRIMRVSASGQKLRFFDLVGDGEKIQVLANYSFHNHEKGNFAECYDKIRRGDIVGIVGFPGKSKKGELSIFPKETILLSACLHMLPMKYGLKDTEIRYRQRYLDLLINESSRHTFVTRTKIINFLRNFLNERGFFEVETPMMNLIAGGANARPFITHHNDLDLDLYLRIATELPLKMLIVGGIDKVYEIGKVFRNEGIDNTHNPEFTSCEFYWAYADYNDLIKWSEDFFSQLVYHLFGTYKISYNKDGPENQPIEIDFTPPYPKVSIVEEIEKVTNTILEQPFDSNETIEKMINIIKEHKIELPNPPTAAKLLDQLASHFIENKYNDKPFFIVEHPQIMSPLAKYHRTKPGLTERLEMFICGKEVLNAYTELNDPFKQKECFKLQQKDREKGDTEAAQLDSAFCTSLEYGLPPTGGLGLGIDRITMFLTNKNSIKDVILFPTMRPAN
UniProt I6X8D2, whole entry: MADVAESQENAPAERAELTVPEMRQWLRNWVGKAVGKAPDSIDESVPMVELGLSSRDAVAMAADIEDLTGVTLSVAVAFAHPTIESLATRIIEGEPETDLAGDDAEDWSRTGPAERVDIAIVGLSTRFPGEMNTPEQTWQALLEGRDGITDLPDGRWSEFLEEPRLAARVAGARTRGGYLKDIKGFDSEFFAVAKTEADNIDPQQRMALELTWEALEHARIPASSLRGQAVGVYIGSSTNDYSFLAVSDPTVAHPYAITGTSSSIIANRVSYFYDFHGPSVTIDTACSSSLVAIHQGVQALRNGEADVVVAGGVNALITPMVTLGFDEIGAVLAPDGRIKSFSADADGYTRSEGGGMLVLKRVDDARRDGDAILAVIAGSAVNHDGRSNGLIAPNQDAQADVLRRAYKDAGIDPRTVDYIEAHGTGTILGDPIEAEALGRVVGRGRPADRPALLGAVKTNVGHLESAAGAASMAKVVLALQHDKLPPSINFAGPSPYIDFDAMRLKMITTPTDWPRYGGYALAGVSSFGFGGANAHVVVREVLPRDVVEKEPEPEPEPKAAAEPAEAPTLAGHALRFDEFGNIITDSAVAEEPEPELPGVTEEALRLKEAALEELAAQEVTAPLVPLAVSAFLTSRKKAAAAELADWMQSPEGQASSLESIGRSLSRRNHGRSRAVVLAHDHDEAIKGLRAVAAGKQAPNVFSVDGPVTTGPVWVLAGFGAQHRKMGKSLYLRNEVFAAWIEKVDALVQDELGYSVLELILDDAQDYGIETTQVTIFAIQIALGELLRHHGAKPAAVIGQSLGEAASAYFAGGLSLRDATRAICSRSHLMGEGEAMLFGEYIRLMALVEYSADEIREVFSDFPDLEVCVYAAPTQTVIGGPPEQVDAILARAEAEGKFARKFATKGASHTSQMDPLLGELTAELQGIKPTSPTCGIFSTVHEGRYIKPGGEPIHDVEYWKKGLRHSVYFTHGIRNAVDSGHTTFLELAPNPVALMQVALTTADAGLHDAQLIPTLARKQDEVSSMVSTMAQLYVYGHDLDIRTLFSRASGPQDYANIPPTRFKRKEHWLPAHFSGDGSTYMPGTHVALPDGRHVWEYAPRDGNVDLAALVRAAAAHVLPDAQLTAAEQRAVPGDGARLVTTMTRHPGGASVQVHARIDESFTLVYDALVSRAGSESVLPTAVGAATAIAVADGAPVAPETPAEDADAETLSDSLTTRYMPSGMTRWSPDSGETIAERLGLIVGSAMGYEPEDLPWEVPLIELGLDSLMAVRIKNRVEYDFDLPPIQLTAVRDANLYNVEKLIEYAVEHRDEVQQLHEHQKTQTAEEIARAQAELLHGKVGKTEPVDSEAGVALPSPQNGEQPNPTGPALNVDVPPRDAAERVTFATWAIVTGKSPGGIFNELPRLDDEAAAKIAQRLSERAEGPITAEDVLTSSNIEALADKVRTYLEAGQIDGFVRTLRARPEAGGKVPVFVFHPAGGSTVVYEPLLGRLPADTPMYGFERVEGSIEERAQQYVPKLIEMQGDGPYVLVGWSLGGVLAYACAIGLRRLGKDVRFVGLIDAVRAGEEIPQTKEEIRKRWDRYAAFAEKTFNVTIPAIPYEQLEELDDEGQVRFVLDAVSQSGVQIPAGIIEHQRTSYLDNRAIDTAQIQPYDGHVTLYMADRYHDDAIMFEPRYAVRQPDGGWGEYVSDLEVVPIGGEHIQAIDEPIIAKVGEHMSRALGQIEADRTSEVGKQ

A: 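Protease assay of ClpP1P2, read by the AMC dye that it sets free. Target: ClpP1P2, Mycobacterium tuberculosis (UniProt P9WPC5 and UniProt P9WPC3). Tested at 50 µM. Higher reads as stronger inhibition, judged from the few compounds that gave an IC50. Most other retested compounds had strongly negative values. About 69,000 compounds were tested under these conditions; 0.015% (about 10) showed 50% or more at least once.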
B: 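Histidine-tRNA ligase, Trypanosoma cruzi CL Brener (UniProt Q4DA54). Enzyme assay of histidyl-tRNA synthetase; the read-out is not stated. Compounds at 30 µM. Higher reads as stronger inhibition (inferred: compounds with an IC50 in retests scored well above the rest). Of about 69,000 compounds tested this way, about 31 (0.045%) reached 50% or more in at least one test.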
C: 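Enzyme assay of the cytosolic lysyl-tRNA synthetase in 384-well plates, read by luminescence. Target: Lysine-tRNA ligase, Plasmodium falciparum 3D7 (UniProt Q8IDJ8). Tested at 30 µM. Higher reads as stronger inhibition, judged from the few compounds that gave an IC50. About 69,000 compounds were tested under these conditions; 0.071% (about 49) showed 50% or more at least once.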
D: 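Enzyme assay of the thioesterase domain of polyketide synthase 13; the read-out is not stated. Target: Polyketide synthase Pks13, Mycobacterium tuberculosis (UniProt I6X8D2). Compounds at 30 µM. The record gives no direction; the compounds picked for IC50 retests had high values, so higher reads as stronger inhibition. Size under these conditions: about 67,000 compounds, about 300 of them at 50% or above in at least one test.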

Values are the deposited “Percent Effect”, in %. The controls that fix the scale are not given in the record; negative values are as filed. Compounds were drawn at random from those tested, without regard to their results. A dash means the value is not listed here; it may have been measured.

structure	A	B	C	D
CCc1ccc(CN2C[C@H](OCC(=O)N(C)C)[C@H]3COC[C@H]32)o1	-1.118	4.444	-0.1533	4.951
CN(Cc1cccs1)C(=O)CN1CCCC1Cn1cncn1 (centres unmarked)	15.42	5.858	-5.297	-7
Cc1cnn(CC2CN(Cc3nc(-c4ccco4)no3)CCO2)c1 (centres unmarked)	-26.92	6.105	0.7269	3.728
COc1cc(F)c(C(=O)NCc2cc(C)on2)c(F)c1	-1.775	11.11	5.511	2.025
Cc1ncc(S(C)(=O)=O)c(N2CCCCCC2)n1	0.4777	1.622	2.253	21.68
CN(C)C(C(=O)NCC1(O)CCCCC1)c1c(F)cccc1F (centres unmarked)	5.767	12.07	4.357	-0.5567
Cc1ccc(CC(=O)N2CCC(c3nnc4n3CCC4)CC2)cc1	-8.988	5.155	9.165	-7.426
COc1ccc(-c2cc3nc(CCNC(=O)C4CC4)nn3cn2)cc1	-8.529	2.825	-0.426	-7.957
CN(C)C[C@@H]1OC[C@H]2CN(Cc3ccoc3)CC[C@H]21	0.9244	4.348	-2.288	-4.051
CNS(=O)(=O)CC1CCCN1c1ccccn1 (centres unmarked)	1.556	8.021	0.78	-5.514
N#Cc1c(F)cccc1N1CCCC(C(=O)Nc2nccs2)C1 (centres unmarked)	-8.227	10.1	1.645	30.6
CC(Cn1cccn1)NC(=O)NCCCN1CCCCCC1=O (centres unmarked)	2.977	1.571	5.114	-
CCn1cnnc1C1CCN(C(=O)c2ccnc(N(C)C)c2)CC1	-0.8255	2.513	6.384	-2.267
CCc1nsc(N2CCN(CC(=O)Nc3c(C)n[nH]c3C)CC2)n1	4.015	3.896	-1.651	13.31
Cc1c(S(=O)(=O)NC2CC2)cc2c(C)cc(=O)n3c2c1CCC3	13.07	1.739	-5.018	-6.902
CC(C)CN(C(=O)COc1ccc(C(N)=O)cc1)C1CCN(C)CC1	-7.784	-8.163	8.214	-16.37
CCc1ncc(CN[C@@H]2CCCN(C(C)=O)[C@H]2c2ccc(C)s2)cn1	-0.2599	4.563	-0.09116	3.157
Cc1nccc(CNC(=O)N(CCCO)C2CCc3ccccc32)n1 (centres unmarked)	-12.82	-1.153	-1.265	-24.27
O=C(CSc1ccccn1)N1C[C@H]2CC[C@@H]1CN(Cc1cscn1)C2	0.4792	2.479	0.07644	-9.356
CCCc1nc(NCCCn2cccn2)c2c(n1)c(C)nn2CC	0.414	3.478	5.211	-10.25
Cc1ncsc1CNC(=O)N(CCCO)C1CCc2ccccc21 (centres unmarked)	-16.83	5.187	0.4218	-5.938
Cc1noc2ncc(C(=O)NCC3CCCOC3)cc12 (centres unmarked)	-41.71	1.176	4.296	-12.82
CCN(C(C)c1cccc(O)c1)S(=O)(=O)c1cccnc1 (centres unmarked)	14.43	5.195	6.688	-23.61
CCN(CC)Cc1ccc(C(=O)NC2CCc3ccccc32)o1 (centres unmarked)	6.108	6.494	5.49	-54.54
CC(C)N1CCc2ncn(C(C)C)c2C1C(=O)N1CCN(C)CC1 (centres unmarked)	4.96	5.063	8.039	7.578
c1ccc(Cc2noc(-c3ccc(NCC4CCCOC4)nc3)n2)cc1 (centres unmarked)	-1.855	7.035	-3.816	12.66
CS(=O)(=O)N[C@@H]1CN(Cc2ccncc2)C[C@@H]2CCCO[C@@H]21	-3.051	1.961	3.945	-22.82
CC(Oc1ccccc1)C(=O)N1CCCN(Cc2nccn2C)CC1 (centres unmarked)	-22.97	-1.127	-0.1816	-9.63
Cc1cccc(C2CCCN(C(=O)CN3C(=O)CCNC3=O)C2)c1 (centres unmarked)	1.845	2.597	7.373	-28.45
O=C(CN1C=Nc2ccccc2S1(=O)=O)NCc1ccccc1F	-27.51	3.468	0.1323	5.465
CC(C(=O)NCC(C)(C)c1ccc2c(c1)OCCO2)n1cncn1 (centres unmarked)	-5.036	0	2.086	-0.9176
Cc1nc(S(=O)(=O)NCCC(=O)NCc2ccsc2)cn1C	-1.798	1.724	8.224	-0.2525
CC[C@@]1(O)CCN(C(=O)CCNC(=O)c2ccc(F)cc2)C[C@H]1O	-33.67	-6.763	5.346	-1.089
Cc1ccc(CN(Cc2cccnc2)C2CC(C)(C)NC(C)(C)C2)s1	-4.619	7.027	-3.537	-38.26
Cc1cccc(C2(NCCCS(C)(=O)=O)CCCC2)c1	2.165	-0.578	2.956	-31.37
CCN1CCCCC1C(=O)N1CCN(C(=O)OC)CC1 (centres unmarked)	-6.279	3.96	3.736	-3.458
CC(=O)NCCNC(=O)c1ccc(C)c(-n2cccc2)c1	7.879	6	5.732	-7.445
COC(=O)C1CCN(C(=O)NCC(C)Cc2cccs2)CC1 (centres unmarked)	-1.188	-1.087	2.131	-12.52
Cc1ccc(S(=O)(=O)N2CC[C@@H]3C[C@H](NC(=O)c4[nH]ncc4Br)[C@@H]32)cc1	-7.558	4.981	0.6122	-0.16
O=C(COc1ccccc1C(F)(F)F)NCCNC(=O)c1ccccc1	6.012	-6.358	0.1146	-
CC(C)C(=O)N(C)CC(=O)Nc1ccc(Br)cn1	-13.89	9.605	1.737	-9.351
c1cc(-c2ccc(CN3CCCC4(CCNC4)C3)s2)[nH]n1 (centres unmarked)	-1.152	6.557	1.182	-21.58
CC(=O)N1CCC(C(=O)N2CCCC(Cc3ccccn3)C2)CC1 (centres unmarked)	1.569	5.224	0.0384	2.177
CC(C)[C@H](NC(=O)Cn1nc2c(cc1=O)CCCC2)C(=O)O	-1.082	-0.9901	-4.665	-7.874
Cc1nc(C2CCCN2CC(=O)N2CCc3ccccc32)no1 (centres unmarked)	-9.572	12.28	2.887	-10.99
Cc1c(Cl)cccc1S(=O)(=O)NCc1cnc(N(C)C)n1C	2.385	10.34	4.566	-9.745
Cc1cc(C)c(C(=O)NC2CCCc3nc(N(C)C)ncc32)cc1C (centres unmarked)	-13.22	-2.041	1.042	-36.98
COc1cc(OC)c(-n2nnc(C(=O)O)c2C)cc1Cl	-6.293	3.415	8.229	-40.72
Cc1c[nH]nc1C1CCN(C(=O)C2CCOCC2)C1 (centres unmarked)	2.25	7.143	-2.426	-6.07
COc1ccc2c(ccn2CCC(=O)Nc2ccc(C(N)=O)cc2)c1	-7.511	2.97	-5.208	-1.658
CCCN(CC(=O)NC)C(=O)c1ccc(-c2nc(C)cs2)cc1	-3.188	10.05	2.951	-4.618
O=C(c1cccnc1)N1Cc2ccccc2OCC1Cn1ccnc1 (centres unmarked)	-12.13	5.747	-0.5116	4.059
COc1ccsc1C(=O)NCCNc1ccccc1	-4.703	1.478	10.57	-50.84
CS(=O)(=O)N1CC2(CCN(C3COC3)C2)Cc2ccccc21 (centres unmarked)	-6.2	1.775	-2.568	6.057
N#Cc1c(Cl)nsc1NCc1ccc(N2CCSCC2)cc1	3.53	4.865	-0.8404	27.73
COCC1c2c(cnn2CC2CC2)CCN1Cc1ccc(C)o1 (centres unmarked)	-19.81	10.48	1.439	-25.33
CC(=O)N1CCCCCC1C1CCN(Cc2nc(C3CC3)no2)CC1 (centres unmarked)	-12.64	1.149	-1.166	-12.35
COCCN1CCO[C@H]2CCN(C(=O)c3cccs3)CC[C@@H]21	10.87	2.454	-4.897	7.641
Cc1cc(NC(=O)NCc2nncn2C)ccc1OC(C)C	-3.76	3.333	-4.643	-17.15
CNc1cccc(C2CCCN(C(=O)c3ccn(C)n3)C2)n1 (centres unmarked)	13.4	7.778	0.2453	-36.67
CC(C)OCCOCc1cccc(NC(=O)NCc2ccncc2)c1	5.869	0	0.1094	-10.77
COCCN(C)CCN1CC2(CCN(C3CCSC3)CC2)OC1=O (centres unmarked)	-10.25	-0.5025	10.33	-5.117
O=C(CNCCn1cccn1)NCC1(c2ccccc2)CC1	1.207	7.17	3.806	-17.36
CN(Cc1ccco1)C(=O)CN1CCCCC1Cn1cncn1 (centres unmarked)	-8.97	2.521	12.43	-1.745
COCCOCC(=O)N1CCC(c2ccccc2F)C1 (centres unmarked)	2.605	1.622	6.516	-15.63

5 of the entries, repeated:

* Cc1c[nH]nc1C1CCN(C(=O)C2CCOCC2)C1 (centres unmarked) : A: 2.25%; B: 7.143%; C: -2.426%; D: -6.07%
* Cc1cc(C)c(C(=O)NC2CCCc3nc(N(C)C)ncc32)cc1C (centres unmarked) : A: -13.22%; B: -2.041%; C: 1.042%; D: -36.98%
* CCCN(CC(=O)NC)C(=O)c1ccc(-c2nc(C)cs2)cc1 : A: -3.188%; B: 10.05%; C: 2.951%; D: -4.618%
* c1ccc(Cc2noc(-c3ccc(NCC4CCCOC4)nc3)n2)cc1 (centres unmarked) : A: -1.855%; B: 7.035%; C: -3.816%; D: 12.66%
* CC(=O)N1CCCCCC1C1CCN(Cc2nc(C3CC3)no2)CC1 (centres unmarked) : A: -12.64%; B: 1.149%; C: -1.166%; D: -12.35%